Measured values published in paper PMC7923384.
No constants are given. Whether binding was seen depends on the method and setting. In cells and extracts the contact can be indirect.

Protein sequences, listed by entry. Tags and fused reporters are not part of them.
UniProt Q9ULU4: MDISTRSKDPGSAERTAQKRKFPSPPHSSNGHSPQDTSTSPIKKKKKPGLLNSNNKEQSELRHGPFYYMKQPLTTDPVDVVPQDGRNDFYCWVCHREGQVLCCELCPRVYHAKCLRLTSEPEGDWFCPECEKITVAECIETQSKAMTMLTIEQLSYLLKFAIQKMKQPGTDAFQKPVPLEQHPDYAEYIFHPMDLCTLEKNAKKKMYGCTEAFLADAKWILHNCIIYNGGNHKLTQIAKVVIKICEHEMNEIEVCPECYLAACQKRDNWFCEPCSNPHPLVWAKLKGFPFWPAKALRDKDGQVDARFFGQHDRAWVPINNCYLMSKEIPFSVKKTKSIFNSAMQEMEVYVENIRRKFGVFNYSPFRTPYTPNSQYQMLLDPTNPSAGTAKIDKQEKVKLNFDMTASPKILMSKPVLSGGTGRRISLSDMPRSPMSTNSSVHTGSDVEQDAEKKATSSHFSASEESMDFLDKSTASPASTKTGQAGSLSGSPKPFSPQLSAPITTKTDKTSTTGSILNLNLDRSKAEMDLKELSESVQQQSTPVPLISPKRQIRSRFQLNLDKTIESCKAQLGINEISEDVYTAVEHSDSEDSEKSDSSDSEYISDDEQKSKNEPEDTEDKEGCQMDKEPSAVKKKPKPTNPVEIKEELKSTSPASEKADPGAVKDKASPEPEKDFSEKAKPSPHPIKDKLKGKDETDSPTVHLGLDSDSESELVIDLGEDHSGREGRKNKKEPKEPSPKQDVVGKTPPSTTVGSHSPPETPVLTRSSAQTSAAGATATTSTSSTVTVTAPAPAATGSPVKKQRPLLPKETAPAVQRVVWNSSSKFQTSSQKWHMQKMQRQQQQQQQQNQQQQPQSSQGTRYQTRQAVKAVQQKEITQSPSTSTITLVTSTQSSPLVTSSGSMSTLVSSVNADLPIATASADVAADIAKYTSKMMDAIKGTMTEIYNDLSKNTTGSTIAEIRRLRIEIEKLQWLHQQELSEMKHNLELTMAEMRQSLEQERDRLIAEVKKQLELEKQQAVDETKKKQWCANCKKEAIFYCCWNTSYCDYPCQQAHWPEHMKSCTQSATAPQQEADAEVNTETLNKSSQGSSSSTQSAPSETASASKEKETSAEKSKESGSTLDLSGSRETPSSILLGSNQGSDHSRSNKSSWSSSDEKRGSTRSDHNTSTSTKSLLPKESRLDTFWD
UniProt Q92800: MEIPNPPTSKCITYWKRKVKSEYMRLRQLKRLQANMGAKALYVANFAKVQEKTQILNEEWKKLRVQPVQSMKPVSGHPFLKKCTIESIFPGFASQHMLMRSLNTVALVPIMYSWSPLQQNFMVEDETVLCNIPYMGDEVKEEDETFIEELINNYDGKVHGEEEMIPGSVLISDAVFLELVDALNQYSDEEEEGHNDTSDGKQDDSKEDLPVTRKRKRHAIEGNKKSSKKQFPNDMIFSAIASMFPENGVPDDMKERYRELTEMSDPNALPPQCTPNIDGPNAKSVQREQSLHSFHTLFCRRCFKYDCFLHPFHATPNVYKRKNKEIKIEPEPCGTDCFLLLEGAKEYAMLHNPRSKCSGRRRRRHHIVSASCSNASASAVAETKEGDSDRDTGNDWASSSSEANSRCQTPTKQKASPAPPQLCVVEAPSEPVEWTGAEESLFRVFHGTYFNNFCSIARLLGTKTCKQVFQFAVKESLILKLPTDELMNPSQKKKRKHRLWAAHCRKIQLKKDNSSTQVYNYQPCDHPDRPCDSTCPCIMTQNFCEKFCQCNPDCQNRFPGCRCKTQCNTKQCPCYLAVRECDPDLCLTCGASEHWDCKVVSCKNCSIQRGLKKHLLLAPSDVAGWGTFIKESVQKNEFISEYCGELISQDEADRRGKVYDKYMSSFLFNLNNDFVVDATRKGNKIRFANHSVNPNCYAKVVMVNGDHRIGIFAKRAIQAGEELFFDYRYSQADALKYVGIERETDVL

Target: ZMYND8 (endogenous) (human (endogenous in 786-O and A498)) (UniProt Q9ULU4)
Experiment: co-IP; endogenous proteins from 786-O and A498 cell lysates, Western blot; also with lambda protein phosphatase on the lysate, sgZMYND8, sgCDK1, RO-3306 (10 uM, 24 h) or roscovitine

Question: With “EZH1 (endogenous) (from UniProt Q92800 1-747)” as the substance, how does the binding read?
Answer: Its binding is “no binding”.
